Experimental data taken from paper PMC2712759, “Hsp70 Chaperones and Type I PRMTs Are Sequestered at Intranuclear Inclusions Caused by Polyalanine Expansions in PABPN1” (PLoS ONE, 2009).
These are yes or no findings as the source states them, for the method shown. In cells and extracts the contact can be indirect. Here binding means that the protein was enriched with, or labelled near, the bait; the list need not be complete. Sequences can lack the tags named with a protein. One block for each binder: values may come before it.

Tests used:
[1] = biological target: T1, normal human PABPN1 (poly(A)-binding protein nuclear 1), homopolymer of 10 alanine residues, His-tagged, biotinylated (human) (UniProt Q86U42); test: affinity purification with mass spectrometry; biotinylated His-PABPN1 (2 µg) on streptavidin-agarose beads, incubated with RNase A-treated extracts of undifferentiated (myoblasts) and differentiated (myotubes) C2 cells, 4 h at 4°C, 20 mM Tris pH 8.0, 200 mM KCl, 10% glycerol; bands excised from SDS-PAGE, MALDI-MS; only the target purified
T1 sequence (chain, biotin (EZ-Link PEO-Maleimide Activated Biotin)): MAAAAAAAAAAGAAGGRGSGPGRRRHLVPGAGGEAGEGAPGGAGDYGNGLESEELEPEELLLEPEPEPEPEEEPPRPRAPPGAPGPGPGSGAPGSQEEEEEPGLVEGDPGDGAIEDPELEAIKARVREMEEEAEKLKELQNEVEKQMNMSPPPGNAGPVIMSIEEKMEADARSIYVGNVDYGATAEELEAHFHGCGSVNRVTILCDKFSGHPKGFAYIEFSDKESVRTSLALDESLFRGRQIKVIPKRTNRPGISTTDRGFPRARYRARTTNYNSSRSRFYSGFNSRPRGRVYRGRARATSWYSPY

[2] = biological target: T2, expanded human PABPN1, tract of 17 alanine residues, His-tagged, biotinylated (human) (UniProt Q86U42); test: as above
T2 sequence (chain, biotin (EZ-Link PEO-Maleimide Activated Biotin)): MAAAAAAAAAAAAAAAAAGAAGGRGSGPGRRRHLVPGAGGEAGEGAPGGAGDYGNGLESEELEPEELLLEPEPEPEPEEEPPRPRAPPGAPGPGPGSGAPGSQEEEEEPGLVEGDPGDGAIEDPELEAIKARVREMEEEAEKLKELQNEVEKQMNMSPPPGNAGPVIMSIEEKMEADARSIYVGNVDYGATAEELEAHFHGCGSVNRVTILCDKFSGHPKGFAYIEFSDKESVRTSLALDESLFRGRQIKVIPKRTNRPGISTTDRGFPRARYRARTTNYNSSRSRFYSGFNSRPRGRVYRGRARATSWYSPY

binding [1]: binds
binding [2]: binds
B1: PABPN1 identified by mass spectrometry in the pull-down (mouse entry) (protein, UniProt Q8CCS6 1-302)
chain: MAAAAAAAAAAGAAGGRGSGPGRRRHLVPGAGGEAGEGDPGGAGDYGNGLESEELEPGELLPEPEPEEEPPRPRAPPGAPGPGPGSGAPGSQEEEEEPGLVEADPGDGAIEDPELEAIKARVREMEEEAEKLKELQNEVEKQMNMSPPPGNAGPVIMSLEEKMEADARSIYVGNVDYGATAEELEAHFHGCGSVNRVTILCDKFSGHPKGFAYIEFSDKESVRTSLALDESLFRGRQIKVIPKRTNRPGISTTDRGFPRSRYRARTTNYNSSRSRFYSGFNSRPRGRIYRGRARATSWYSPY

binding [1]: binds
binding [2]: binds
B2: Ski-interacting protein (SKIP) (protein, UniProt Q9CSN1 1-536)
chain: MALTSFLPAPTQLSQDQLEAEERARSQRSLQTSLVSSRREPPPYGYRKGWIPRLLEDFGDGGAFPEIHVAQYPLDMGRKKKMSNALAIQVDPEGKIKYDAIARQGQSKDKVIYSKYTDLVPKEVMNADDPDLQRPDEEAIKEITEKTRVALEKSVSQKVAAAMPVRAADKLAPAQYIRYTPSQQGVAFNSGAKQRVIRMVEMQKEPMEPPRFKINKKIPRGPPSPPAPVMHSPSRKMTVKEQQEWKIPPCISNWKNAKGYTIPIDKRLAADGRGLQTVHINENFAKLAEALYIADRKAREAVEMRAQVERKMAQKEKEKHEEKLREMAQKARERRAGIKTHVEKEDGEARERDEIRHDRRKERQHDRNLSRAAPDKRSKLQRNENRDISEVIALGVPNPRTSNEVQYDQRLFNQSKGMDSGFAGGEDEIYNVYDQAWRGGKDMAQSIYRPSKNLDKDMYGDDLEARIKTNRFVPDKEFSGSDRKQRGREGPVQFEEDPFGLDKFLEEAKQHGGSKRPSDSSRPKEHEHEGKKRRKE
